This is one part of the list.

Protein sequences, listed by entry. Tags and fused reporters are not part of them. Lines headed by an entry give the natural chain unless they say otherwise; changes in a name come on top.
UniProt Q9UHG3: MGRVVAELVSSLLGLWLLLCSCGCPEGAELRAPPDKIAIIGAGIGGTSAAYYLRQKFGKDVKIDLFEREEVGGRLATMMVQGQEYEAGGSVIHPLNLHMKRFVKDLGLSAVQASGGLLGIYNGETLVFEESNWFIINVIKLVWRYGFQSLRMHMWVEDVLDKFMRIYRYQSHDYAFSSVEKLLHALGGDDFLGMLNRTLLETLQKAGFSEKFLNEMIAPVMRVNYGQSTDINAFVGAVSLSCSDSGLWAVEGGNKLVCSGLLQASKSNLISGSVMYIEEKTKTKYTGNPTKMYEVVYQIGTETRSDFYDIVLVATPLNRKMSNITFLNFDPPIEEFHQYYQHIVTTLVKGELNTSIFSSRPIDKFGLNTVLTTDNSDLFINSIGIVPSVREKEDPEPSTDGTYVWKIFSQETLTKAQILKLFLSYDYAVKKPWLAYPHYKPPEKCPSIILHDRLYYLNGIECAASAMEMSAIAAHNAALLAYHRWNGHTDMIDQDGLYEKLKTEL
UniProt O14737: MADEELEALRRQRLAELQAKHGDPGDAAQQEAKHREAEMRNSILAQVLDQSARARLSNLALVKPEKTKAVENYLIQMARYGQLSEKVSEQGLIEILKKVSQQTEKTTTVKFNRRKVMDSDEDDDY
UniProt Q14690: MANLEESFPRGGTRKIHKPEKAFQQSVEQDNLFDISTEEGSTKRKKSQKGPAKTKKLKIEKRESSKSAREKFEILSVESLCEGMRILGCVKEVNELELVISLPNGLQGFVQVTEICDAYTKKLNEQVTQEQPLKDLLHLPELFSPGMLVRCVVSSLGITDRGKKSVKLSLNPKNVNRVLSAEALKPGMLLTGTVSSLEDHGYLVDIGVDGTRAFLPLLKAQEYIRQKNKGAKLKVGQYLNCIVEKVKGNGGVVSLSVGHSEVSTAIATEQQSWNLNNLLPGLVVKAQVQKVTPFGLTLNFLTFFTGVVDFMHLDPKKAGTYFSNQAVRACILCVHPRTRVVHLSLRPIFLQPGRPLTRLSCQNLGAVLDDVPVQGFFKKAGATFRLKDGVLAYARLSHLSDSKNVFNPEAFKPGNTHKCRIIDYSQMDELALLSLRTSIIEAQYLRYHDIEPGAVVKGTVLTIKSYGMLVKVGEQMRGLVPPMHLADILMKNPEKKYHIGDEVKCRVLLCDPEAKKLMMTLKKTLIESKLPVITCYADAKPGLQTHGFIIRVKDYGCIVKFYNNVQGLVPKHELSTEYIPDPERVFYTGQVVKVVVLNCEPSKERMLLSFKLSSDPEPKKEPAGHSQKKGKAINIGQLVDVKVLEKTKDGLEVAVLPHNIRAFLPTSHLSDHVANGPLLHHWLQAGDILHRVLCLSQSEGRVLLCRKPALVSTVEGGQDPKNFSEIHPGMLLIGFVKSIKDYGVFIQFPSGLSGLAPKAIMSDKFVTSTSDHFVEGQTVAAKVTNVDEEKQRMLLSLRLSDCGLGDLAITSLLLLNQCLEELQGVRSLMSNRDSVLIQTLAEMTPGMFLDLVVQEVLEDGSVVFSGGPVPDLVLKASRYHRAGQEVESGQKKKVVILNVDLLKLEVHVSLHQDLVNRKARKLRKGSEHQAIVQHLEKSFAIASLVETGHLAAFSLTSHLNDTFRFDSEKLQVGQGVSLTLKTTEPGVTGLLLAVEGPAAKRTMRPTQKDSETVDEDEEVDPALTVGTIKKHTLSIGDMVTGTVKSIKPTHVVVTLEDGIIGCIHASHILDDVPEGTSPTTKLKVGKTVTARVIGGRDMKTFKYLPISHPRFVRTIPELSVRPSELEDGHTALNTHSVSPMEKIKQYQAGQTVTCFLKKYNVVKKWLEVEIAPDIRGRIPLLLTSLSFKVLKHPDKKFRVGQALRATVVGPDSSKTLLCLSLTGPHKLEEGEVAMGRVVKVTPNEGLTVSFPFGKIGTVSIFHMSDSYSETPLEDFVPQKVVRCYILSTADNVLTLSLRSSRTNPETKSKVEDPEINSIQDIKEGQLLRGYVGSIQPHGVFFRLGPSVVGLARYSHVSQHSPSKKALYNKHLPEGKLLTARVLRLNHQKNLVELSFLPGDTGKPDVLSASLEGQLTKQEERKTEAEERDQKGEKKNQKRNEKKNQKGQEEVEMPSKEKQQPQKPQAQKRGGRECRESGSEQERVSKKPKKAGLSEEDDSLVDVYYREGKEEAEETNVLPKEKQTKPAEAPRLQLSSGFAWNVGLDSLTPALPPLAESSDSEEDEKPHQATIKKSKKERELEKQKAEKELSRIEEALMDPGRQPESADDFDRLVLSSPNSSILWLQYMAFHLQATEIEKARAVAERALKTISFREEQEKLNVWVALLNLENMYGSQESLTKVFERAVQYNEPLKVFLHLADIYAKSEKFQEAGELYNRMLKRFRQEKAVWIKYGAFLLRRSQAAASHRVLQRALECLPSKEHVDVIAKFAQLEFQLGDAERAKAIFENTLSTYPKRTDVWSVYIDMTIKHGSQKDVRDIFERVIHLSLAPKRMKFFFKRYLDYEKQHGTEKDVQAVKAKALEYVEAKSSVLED
UniProt Q5T2R2: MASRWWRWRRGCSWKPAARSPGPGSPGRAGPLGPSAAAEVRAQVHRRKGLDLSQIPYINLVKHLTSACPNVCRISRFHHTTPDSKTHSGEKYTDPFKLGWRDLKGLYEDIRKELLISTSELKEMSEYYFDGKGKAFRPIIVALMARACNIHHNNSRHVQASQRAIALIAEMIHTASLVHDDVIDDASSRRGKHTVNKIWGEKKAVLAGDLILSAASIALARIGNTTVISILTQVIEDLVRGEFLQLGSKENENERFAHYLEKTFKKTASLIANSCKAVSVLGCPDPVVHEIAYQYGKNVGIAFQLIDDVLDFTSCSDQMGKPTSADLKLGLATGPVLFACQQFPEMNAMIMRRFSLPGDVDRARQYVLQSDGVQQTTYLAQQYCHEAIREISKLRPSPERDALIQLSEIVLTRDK
UniProt Q9BPZ3: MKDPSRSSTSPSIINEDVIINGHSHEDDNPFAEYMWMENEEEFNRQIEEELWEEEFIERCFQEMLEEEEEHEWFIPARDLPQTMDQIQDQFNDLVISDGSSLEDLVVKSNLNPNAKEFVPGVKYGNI
UniProt Q9HBH1: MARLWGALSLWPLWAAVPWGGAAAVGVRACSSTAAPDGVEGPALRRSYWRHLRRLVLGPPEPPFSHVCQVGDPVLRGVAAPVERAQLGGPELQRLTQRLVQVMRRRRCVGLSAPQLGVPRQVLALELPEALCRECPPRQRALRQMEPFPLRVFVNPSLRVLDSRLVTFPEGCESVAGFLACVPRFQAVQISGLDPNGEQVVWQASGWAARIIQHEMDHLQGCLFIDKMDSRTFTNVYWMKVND
UniProt P11177, whole entry, looked up: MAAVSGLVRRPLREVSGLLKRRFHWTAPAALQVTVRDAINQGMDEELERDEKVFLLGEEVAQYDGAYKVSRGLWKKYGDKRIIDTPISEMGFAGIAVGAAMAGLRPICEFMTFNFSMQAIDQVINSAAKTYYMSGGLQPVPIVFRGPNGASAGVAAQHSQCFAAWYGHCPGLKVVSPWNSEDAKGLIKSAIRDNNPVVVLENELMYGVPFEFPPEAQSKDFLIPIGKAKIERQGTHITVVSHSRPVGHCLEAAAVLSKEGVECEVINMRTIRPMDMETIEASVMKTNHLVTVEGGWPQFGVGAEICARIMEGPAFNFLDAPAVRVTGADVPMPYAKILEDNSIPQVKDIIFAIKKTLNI
UniProt Q8NBP7, whole entry, looked up: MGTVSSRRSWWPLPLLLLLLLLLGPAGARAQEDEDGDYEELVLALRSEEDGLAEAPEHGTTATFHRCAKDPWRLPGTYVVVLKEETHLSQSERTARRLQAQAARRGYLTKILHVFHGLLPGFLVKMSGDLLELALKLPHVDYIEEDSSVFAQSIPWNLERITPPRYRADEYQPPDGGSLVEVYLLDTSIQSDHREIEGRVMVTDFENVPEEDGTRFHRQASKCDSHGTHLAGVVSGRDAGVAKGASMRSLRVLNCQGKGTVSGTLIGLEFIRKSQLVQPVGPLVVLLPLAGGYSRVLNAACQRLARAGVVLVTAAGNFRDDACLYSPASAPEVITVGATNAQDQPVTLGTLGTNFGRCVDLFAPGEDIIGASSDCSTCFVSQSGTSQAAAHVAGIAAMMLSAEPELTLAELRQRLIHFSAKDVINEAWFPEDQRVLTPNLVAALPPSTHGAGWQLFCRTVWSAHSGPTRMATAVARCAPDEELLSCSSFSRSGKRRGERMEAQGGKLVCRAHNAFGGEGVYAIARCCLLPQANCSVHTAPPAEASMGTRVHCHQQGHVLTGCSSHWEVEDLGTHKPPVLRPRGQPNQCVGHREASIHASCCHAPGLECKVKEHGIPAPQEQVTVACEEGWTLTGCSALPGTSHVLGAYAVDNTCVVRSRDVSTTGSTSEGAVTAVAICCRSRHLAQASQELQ
UniProt P13667: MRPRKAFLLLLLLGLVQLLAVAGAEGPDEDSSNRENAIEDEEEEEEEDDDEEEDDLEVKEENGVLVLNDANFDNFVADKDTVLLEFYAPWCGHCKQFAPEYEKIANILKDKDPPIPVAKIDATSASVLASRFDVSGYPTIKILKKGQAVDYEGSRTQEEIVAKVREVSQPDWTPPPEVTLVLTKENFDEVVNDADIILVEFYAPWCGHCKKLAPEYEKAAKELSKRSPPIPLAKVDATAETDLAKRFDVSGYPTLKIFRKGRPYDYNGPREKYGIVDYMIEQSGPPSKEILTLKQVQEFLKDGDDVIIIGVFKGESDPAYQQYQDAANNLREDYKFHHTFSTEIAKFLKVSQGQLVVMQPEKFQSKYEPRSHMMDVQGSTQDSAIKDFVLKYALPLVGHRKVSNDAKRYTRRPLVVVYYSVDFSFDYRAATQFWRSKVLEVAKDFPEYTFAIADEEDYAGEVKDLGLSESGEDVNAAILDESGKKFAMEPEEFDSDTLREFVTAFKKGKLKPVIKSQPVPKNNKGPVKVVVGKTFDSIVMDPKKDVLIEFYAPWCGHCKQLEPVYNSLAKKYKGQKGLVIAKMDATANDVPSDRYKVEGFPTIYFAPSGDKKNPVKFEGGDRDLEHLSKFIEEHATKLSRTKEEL
UniProt Q13310, whole entry, looked up: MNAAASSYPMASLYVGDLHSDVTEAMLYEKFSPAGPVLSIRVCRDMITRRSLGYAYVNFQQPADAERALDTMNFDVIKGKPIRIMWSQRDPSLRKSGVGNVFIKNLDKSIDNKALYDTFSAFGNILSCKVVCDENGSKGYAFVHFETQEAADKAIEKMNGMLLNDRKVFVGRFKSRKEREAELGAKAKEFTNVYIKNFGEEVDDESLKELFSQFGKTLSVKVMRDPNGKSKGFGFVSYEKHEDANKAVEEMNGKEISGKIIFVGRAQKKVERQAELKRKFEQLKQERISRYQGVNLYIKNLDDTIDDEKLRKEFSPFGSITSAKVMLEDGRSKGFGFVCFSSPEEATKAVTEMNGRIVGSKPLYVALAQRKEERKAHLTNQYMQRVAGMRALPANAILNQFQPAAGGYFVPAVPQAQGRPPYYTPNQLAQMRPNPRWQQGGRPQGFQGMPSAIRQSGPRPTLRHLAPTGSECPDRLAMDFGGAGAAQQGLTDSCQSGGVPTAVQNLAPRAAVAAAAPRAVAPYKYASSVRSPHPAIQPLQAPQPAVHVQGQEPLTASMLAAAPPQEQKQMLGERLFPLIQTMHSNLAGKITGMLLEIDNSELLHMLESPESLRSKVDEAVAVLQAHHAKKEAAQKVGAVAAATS
UniProt Q9H0N5: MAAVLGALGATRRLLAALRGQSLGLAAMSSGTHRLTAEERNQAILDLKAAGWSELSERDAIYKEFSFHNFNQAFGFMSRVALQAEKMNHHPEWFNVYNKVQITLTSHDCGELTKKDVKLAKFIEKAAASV
UniProt Q6P996: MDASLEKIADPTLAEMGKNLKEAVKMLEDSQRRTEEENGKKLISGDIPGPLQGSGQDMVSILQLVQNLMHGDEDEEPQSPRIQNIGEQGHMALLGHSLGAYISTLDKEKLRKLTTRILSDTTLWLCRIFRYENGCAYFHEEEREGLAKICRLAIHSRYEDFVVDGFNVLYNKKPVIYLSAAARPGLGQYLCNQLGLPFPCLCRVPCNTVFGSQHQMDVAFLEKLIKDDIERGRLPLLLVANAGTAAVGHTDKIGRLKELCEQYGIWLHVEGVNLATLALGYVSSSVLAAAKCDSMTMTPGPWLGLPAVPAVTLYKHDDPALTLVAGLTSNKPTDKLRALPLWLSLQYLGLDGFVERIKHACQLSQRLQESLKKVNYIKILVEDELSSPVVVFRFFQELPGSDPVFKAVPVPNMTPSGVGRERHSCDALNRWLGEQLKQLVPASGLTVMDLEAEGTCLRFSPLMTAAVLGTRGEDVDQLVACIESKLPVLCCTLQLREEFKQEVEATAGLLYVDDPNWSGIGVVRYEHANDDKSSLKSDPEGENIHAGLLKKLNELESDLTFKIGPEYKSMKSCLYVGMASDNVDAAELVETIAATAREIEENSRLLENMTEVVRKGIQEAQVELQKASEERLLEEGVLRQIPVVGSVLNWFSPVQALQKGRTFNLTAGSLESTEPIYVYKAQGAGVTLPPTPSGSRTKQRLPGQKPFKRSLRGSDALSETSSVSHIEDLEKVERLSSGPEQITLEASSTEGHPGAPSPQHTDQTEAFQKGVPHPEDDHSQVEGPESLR

Compound in the first experiment: CCCc1cc(C)[nH]c(=O)c1CNC(=O)c1cc(-c2ccnc(N3CCN(C)CC3)c2)cc2c1cnn2C(C)C
Description: log2 fold change, soluble protein after heating vs DMSO (PISA); higher = thermal stabilisation; K562 cells, 10 uM, 30 min; active = over 0.2 and 3.5 SD of the protein, either way, in both replicates (recomputed). The procedure, abridged:
(§1)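 K562 cells at 2×10^6 cells/mL were exposed to 10 μM compound for 30 min, then aliquots were heated for 3 min across 48°C-58°C, pooled, and extracted in PBS containing 0.5% NP-40 at 4°C. The supernatant after 21,000xg for 90 min was taken as soluble protein and measured by TMTpro 16plex LC-MS/MS with channel sums equalised. Thermal stability is reported relative to control samples, with values from duplicates. Fold changes are given on a log2 scale.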
On to PCYOX1 (UniProt Q9UHG3), for which the log2 fold change is inactive: -0.018.
Still for that read-out and setting: to PDCL (UniProt Q13371) belongs inactive: 0.021.
Still for that read-out and setting: in the case of PDCD5 (UniProt O14737) it was inactive: -0.068.
The same measure, in the same setting: to PAGR1 (UniProt Q9BTK6) belongs inactive: 0.033; to PDCD11 (UniProt Q14690), inactive: -0.264.
Consider PDSS1 (UniProt Q5T2R2), for which the log2 fold change was inactive: -0.011.
On the same count and under the same terms, in the case of PAK3 isoform 3 (UniProt O75914) it was inactive: 0.018; in that of PAIP2 (UniProt Q9BPZ3), inactive: -0.063.
Same read-out and setting: to PDF (UniProt Q9HBH1) belongs inactive: -0.113; to PANX1 (UniProt Q96RD7), inactive: -0.003; to PDHX (UniProt O00330), inactive: 0.053.
Still for that read-out and setting: in the case of PDHB (UniProt P11177) it was inactive: 0.105.
As to PAK2 (UniProt Q13177), the log2 fold change is inactive: -0.047.
Same read-out and setting: in the case of PEX14 (UniProt O75381) it was inactive: 0.013; in that of PASK (UniProt Q96RG2), inactive: -0.094; in that of PCSK9 (UniProt Q8NBP7), inactive: 0.073.
On the same count and under the same terms, to PAPSS1 (UniProt O43252) belongs inactive: -0.029; to PDIA4 (UniProt P13667), inactive: 0.026; to PABPC4 isoform 3 (UniProt Q13310), inactive: 0.042.
Still for that read-out and setting: to PCBD2 (UniProt Q9H0N5) belongs inactive: -0.03; to PDCL3 (UniProt Q9H2J4), inactive: -0.006; to PDLIM4 (UniProt P50479), inactive: -0.005.
Turning to PCNA (UniProt P12004), the log2 fold change was inactive: -0.076.
The same measure, in the same setting: in the case of PDXDC1 (UniProt Q6P996) it was inactive: 0.14; in that of PAFAH1B1 (UniProt P43034), inactive: -0.026; in that of PDZD8 (UniProt Q8NEN9), inactive: -0.112.
On the same count and under the same terms, in the case of PEX12 (UniProt O00623) it was inactive: -0.034.
The same measure, in the same setting: in the case of PCBD1 (UniProt P61457) it was inactive: -0.06.
Take PDIA5 (UniProt Q14554): the log2 fold change is inactive: 0.012.
For the target PDXK (UniProt O00764), the log2 fold change was inactive: -0.034.
On the same count and under the same terms, in the case of PBLD (UniProt P30039) it was inactive: 0.01.
The same measure, in the same setting: to PEX1 (UniProt O43933) belongs inactive: 0.002; to PANK2 (UniProt Q9BZ23), inactive: 0.003.

Compound in a further experiment: CCN(CC)Cc1ccc2cc(COC(=O)Nc3ccc(C(=O)NO)cc3)ccc2c1 [givinostat]
The experiment is described as above. Summed up: as §1
As to PCYOX1 (UniProt Q9UHG3), the log2 fold change was inactive: 0.056.
PDCL (UniProt Q13371): the log2 fold change was inactive: 0.042.
Still for that read-out and setting: in the case of PDCD5 (UniProt O14737) it was inactive: -0.004; in that of PAGR1 (UniProt Q9BTK6), inactive: -0.058.
Regarding PDCD11 (UniProt Q14690), the log2 fold change is inactive: 0.033.
For PDSS1 (UniProt Q5T2R2), the log2 fold change is inactive: -0.073.
Same read-out and setting: to PAK3 isoform 3 (UniProt O75914) belongs inactive: -0.033.
Still for that read-out and setting: to PAIP2 (UniProt Q9BPZ3) belongs inactive: -0.01; to PDF (UniProt Q9HBH1), inactive: -0.056.
On the same count and under the same terms, to PANX1 (UniProt Q96RD7) belongs inactive: -0.021.
With PDHX (UniProt O00330), the log2 fold change is inactive: 0.072.
On the same count and under the same terms, to PDHB (UniProt P11177) belongs inactive: 0.075.
Still for that read-out and setting: in the case of PAK2 (UniProt Q13177) it was inactive: 0.002; in that of PEX14 (UniProt O75381), inactive: 0.029; in that of PASK (UniProt Q96RG2), inactive: -0.004.
For PCSK9 (UniProt Q8NBP7), the log2 fold change is inactive: 0.091.
Still for that read-out and setting: in the case of PAPSS1 (UniProt O43252) it was inactive: 0.022; in that of PDIA4 (UniProt P13667), inactive: 0.
Regarding PABPC4 isoform 3 (UniProt Q13310), the log2 fold change is inactive: -0.008.
Regarding PCBD2 (UniProt Q9H0N5), the log2 fold change was inactive: 0.01.
Still for that read-out and setting: to PDCL3 (UniProt Q9H2J4) belongs inactive: 0.018.
Same read-out and setting: in the case of PDLIM4 (UniProt P50479) it was inactive: 0.08; in that of PCNA (UniProt P12004), inactive: -0.056; in that of PDXDC1 (UniProt Q6P996), inactive: 0.077.
Same read-out and setting: to PAFAH1B1 (UniProt P43034) belongs inactive: -0.039.
For the target PDZD8 (UniProt Q8NEN9), the log2 fold change is inactive: 0.011.
In the case of PEX12 (UniProt O00623), the log2 fold change is inactive: 0.02.
As to PCBD1 (UniProt P61457), the log2 fold change is inactive: 0.009.
On the same count and under the same terms, to PDIA5 (UniProt Q14554) belongs inactive: -0.002; to PDXK (UniProt O00764), inactive: -0.022; to PBLD (UniProt P30039), inactive: 0.037.
Still for that read-out and setting: in the case of PEX1 (UniProt O43933) it was inactive: -0.006; in that of PANK2 (UniProt Q9BZ23), inactive: 0.043.

Compound in another experiment: CCN(CCCOc1ccc2c(Nc3cc(CC(=O)Nc4cccc(F)c4)[nH]n3)ncnc2c1)CCOP(=O)(O)O [barasertib]
The description is as above. Summed up:
as §1
Take PCYOX1 (UniProt Q9UHG3): the log2 fold change is inactive: -0.028.
Still for that read-out and setting: in the case of PDCL (UniProt Q13371) it was inactive: 0.115.
The same measure, in the same setting: in the case of PDCD5 (UniProt O14737) it was inactive: -0.012; in that of PAGR1 (UniProt Q9BTK6), inactive: -0.045.
Still for that read-out and setting: to PDCD11 (UniProt Q14690) belongs inactive: 0.108; to PDSS1 (UniProt Q5T2R2), inactive: 0.05.
On to PAK3 isoform 3 (UniProt O75914), for which the log2 fold change was inactive: 0.011.
The same measure, in the same setting: in the case of PAIP2 (UniProt Q9BPZ3) it was inactive: 0.064; in that of PDF (UniProt Q9HBH1), inactive: -0.043; in that of PANX1 (UniProt Q96RD7), inactive: -0.034.
In the case of PDHX (UniProt O00330), the log2 fold change is inactive: -0.057.
On the same count and under the same terms, to PDHB (UniProt P11177) belongs inactive: -0.024.
Consider PAK2 (UniProt Q13177), for which the log2 fold change was inactive: -0.008.
Same read-out and setting: in the case of PEX14 (UniProt O75381) it was inactive: -0.009; in that of PASK (UniProt Q96RG2), inactive: 0.011; in that of PCSK9 (UniProt Q8NBP7), inactive: -0.075.
In the case of PAPSS1 (UniProt O43252), the log2 fold change is inactive: 0.018.
The same measure, in the same setting: in the case of PDIA4 (UniProt P13667) it was inactive: -0.014; in that of PABPC4 isoform 3 (UniProt Q13310), inactive: -0.035; in that of PCBD2 (UniProt Q9H0N5), inactive: 0.005.
In the case of PDCL3 (UniProt Q9H2J4), the log2 fold change was inactive: -0.005.
Regarding PDLIM4 (UniProt P50479), the log2 fold change was inactive: 0.013.
In the case of PCNA (UniProt P12004), the log2 fold change was inactive: 0.008.
Still for that read-out and setting: to PDXDC1 (UniProt Q6P996) belongs inactive: 0.261; to PAFAH1B1 (UniProt P43034), inactive: -0.007; to PDZD8 (UniProt Q8NEN9), inactive: 0.013.
On to PEX12 (UniProt O00623), for which the log2 fold change is inactive: 0.009.
On the same count and under the same terms, to PCBD1 (UniProt P61457) belongs inactive: 0.028.
On the same count and under the same terms, in the case of PDIA5 (UniProt Q14554) it was inactive: -0.033.
Same read-out and setting: in the case of PDXK (UniProt O00764) it was inactive: 0.008; in that of PBLD (UniProt P30039), inactive: 0.087; in that of PEX1 (UniProt O43933), inactive: 0.013.
Turning to PANK2 (UniProt Q9BZ23), the log2 fold change was inactive: 0.031.

Source of the values: the supplement of paper PMC10849652.
